At least one structure is not confirmed: it was looked up by name or label, or the drawing left a doubt.
Assay: Sonoactivation of IRDye 700DX solution; singlet oxygen detected with Sensor Green indicator
Conditions: 700DX with Sensor Green, 1 MHz, duty cycle 50%
Description: As shown therein, there is generation of singlet oxygen during the sonodynamic process. By applying the ultrasonic wave at 1MHz and 2.0W/cm^2 to the agent IRDye® 700DX, the enhancement of the emission of the singlet oxygen indicator, Sensor Green (SG), indicates the occurrence of a sonodynamic effects. Singlet oxygen was detected.
Both sonosensitization, also known as sonodynamic activation or sonoactivation, and photosensitization, also known as photodynamic activation or photoactivation, trigger reactive oxidation species (ROS) or single oxygen (^1O2) that results in cell death via either apoptosis or necrosis, and thus sonodynamic therapy (SDT) or photodynamic therapy (PDT), respectively.

With `C[Si](C)(CCC[N+](CCCS(=O)(=O)[O-])(CCCS(=O)(=O)[O-])CCCS(=O)(=O)[O-])O[Si]1(O[Si](C)(C)CCC[N+](CCCS(=O)(=O)[O-])(CCCS(=O)(=O)[O-])CCCS(=O)(=O)[O-])n2c3c4ccccc4c2N=C2N=C(N=c4c5ccccc5c(n41)=NC1=NC(=N3)c3ccccc31)c1cccc(OCCCOC(=O)NCCCCCC(=O)ON3C(=O)CCC3=O)c12.[Na+].[Na+].[Na+].[Na+]` (centres unmarked) [IRDye® 700DX] the “Primary Sonodynamic Effect Detected” value (2 W/cm^2, 2 + 2 min, 240 J/cm^2) was “^1O2++” and the “Primary Sonodynamic Effect Detected” value (2 W/cm^2, 2 min, 120 J/cm^2) was “^1O2+”.
